{"source": "PubChem BioAssay AID1347075", "about": "(National Center for Advancing Translational Sciences (NCATS), 2019)", "note": "The campaign covered roughly 400,000 compounds. About 5,500 (1.4%) were called active. The inconclusive results got no clear call from the source; some entries with a clear call stand among them for comparison. The call rests on the fitted dose curve; in most records, active means well fitted cell-killing curve with a large enough effect; inconclusive means small, poorly fitted or top-dose-only effect, or effect the other way; inactive means flat fitted curve, though single readings scatter. A potency beside an inconclusive call is a rough fit, not a confirmed value. On the % scale 0 is the no-effect control and ±100 the full control effect; potency means the concentration at half of the fitted maximal effect.", "data": [{"experiment": "qHTS assay for MDR1-selective chemotherapeutics: Primary screen using the parental adenocarcinoma cell KB-3-1; further: nearly all actives have a fitted effect of over 60% in size", "conditions": "KB-3-1 viability, CellTiter-Glo ATP luminescence, 72 h; activity change, negative = cytotoxic: at 46.1 µM (top of the series)", "method_in_brief": "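Screening of KB-3-1 cells (DMEM, 10% FBS, phenol-red free) ran from lowest to highest compound concentration; after 72 h at 37 °C viability was read luminescently and curves fitted.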", "values": [{"smiles": "CCN1C(=O)[C@H]2[C@@H](c3ccc(-c4ccc(OC)cc4)cc3)N[C@@](CC(C)C)(C(=O)OC)[C@H]2C1=O", "Potency": "inconclusive: 18.4 µM [cytotoxic, partial curve, poor fit]"}, {"smiles": "CCS(=O)(=O)N1CC(=O)N(c2ccc(Cl)cc2C)C(C)(C(=O)NC2CCCCC2)C1", "note": "(configuration not stated)", "activity change, negative = cytotoxic": "inactive: -1.35%"}, {"smiles": "Cc1cccc(NC(=O)CSc2nnc([C@@H]3CCCN3C(=O)OC(C)(C)C)o2)c1C", "Potency": "active: 20.6 µM"}, {"smiles": "CCn1c(=O)c2cc(C(=O)NCc3ccc(F)cc3Cl)sc2c2ccccc21", "activity change, negative = cytotoxic": "inactive: -0.373%"}, {"smiles": "OCC[n+]1ccc(/C=C/c2c[nH]c3ccccc23)cc1", "Potency": "inconclusive: 20.6 µM [cytotoxic, partial curve, poor fit]"}, {"smiles": "CC1Cc2ccccc2N1S(=O)(=O)c1cccc(C(=O)N2CCN(c3ncccn3)CC2)c1", "note": "(configuration not stated)", "Potency": "inconclusive: 0.231 µM [cytotoxic, full curve, poor fit]"}, {"smiles": "COc1ccc(Cl)cc1NC(=S)NC1CCCC1", "activity change, negative = cytotoxic": "inconclusive: -31.1%"}, {"smiles": "CCOC(=O)N1CCN(C(=O)C2CCCN(S(=O)(=O)c3ccc(C)cc3)C2)CC1", "note": "(configuration not stated)", "activity change, negative = cytotoxic": "inactive: 3.04%"}, {"smiles": "COc1ccc(NS(=O)(=O)c2cc(C)ccc2C)cc1", "Potency": "active: 7.31 µM"}, {"smiles": "COC(=O)c1ccc(COc2cccc3c2CCN(Cc2cccc(C)c2)C3=O)o1", "activity change, negative = cytotoxic": "inconclusive: -73.3%"}, {"smiles": "CCOC(=O)[C@@H]1[C@H]2COc3ccccc3[C@@H]2N2C(=O)N(c3ccc(OC)cc3)C(=O)[C@@]12C", "Potency": "inconclusive: 0.0651 µM [rising, full curve]"}, {"smiles": "C[C@H]1CCC(=O)N([C@H](CSc2ccc(Br)cc2)Cc2ccccc2)CC1", "Potency": "inconclusive: 18.4 µM [cytotoxic, single point]"}, {"smiles": "COc1ccc(CCNc2ncnc3nc[nH]c23)cc1OC", "Potency": "inconclusive: 32.6 µM [cytotoxic, partial curve, poor fit]"}, {"smiles": "CCCOc1ccc(-c2cn3ccccc3n2)cc1", "Potency": "inconclusive: 16.4 µM [cytotoxic, partial curve, poor fit]"}, {"smiles": "CCCCCN1C(C(=O)c2ccccc2)=C(NC(=O)c2ccc(C)cc2)c2ccccc2S1(=O)=O", "Potency": "inconclusive: 16.4 µM [cytotoxic, single point]"}, {"smiles": "O=C(Cc1ccc(Br)cc1)Nc1cccc(S(=O)(=O)N2CCCCC2)c1", "Potency": "inconclusive: 23.1 µM [cytotoxic, single point]"}, {"smiles": "CC(C)(C)/C(O)=C/c1nc2ccccc2[nH]c1=O", "activity change, negative = cytotoxic": "inactive: 13.6%"}, {"smiles": "CCC(C(=O)Nc1cnccn1)c1ccccc1", "note": "(configuration not stated)", "Potency": "inconclusive: 32.6 µM [cytotoxic, single point]"}, {"smiles": "Cc1sc2nc(C3CC3)nc(SCC(=O)NCc3ccco3)c2c1C", "activity change, negative = cytotoxic": "inactive: -2.05%"}, {"smiles": "O=C1[C@H]2[C@@H](c3ccc(F)cc3)N3C(=O)N(c4ccc(C(F)(F)F)cc4)C(=O)[C@@]3(Cc3ccccc3)[C@H]2C(=O)N1C1CCCCC1", "Potency": "inconclusive: 23.1 µM [cytotoxic, single point]"}, {"smiles": "C=CCN1C(=O)C(CC(=O)O)S/C1=N/N=C/c1ccc(N(CC)CC)cc1", "note": "(configuration not stated)", "activity change, negative = cytotoxic": "inconclusive: -3.72%"}, {"smiles": "COc1ccc(S(=O)(=O)N2CCN(C(=O)c3ccc4ccccc4n3)CC2)cc1", "activity change, negative = cytotoxic": "inactive: -4.57%"}, {"smiles": "CN(C)c1ccc(/C=N\\Nc2ccc([N+](=O)[O-])cc2[N+](=O)[O-])cc1Br", "Potency": "inconclusive: 18.4 µM [rising, partial curve]"}, {"smiles": "COCCNc1nc(N)c([N+](=O)[O-])c(NC2CCCCC2)n1", "Potency": "inconclusive: 16.4 µM [rising, partial curve, poor fit]"}, {"smiles": "COc1ccc(OC)c(NC(=O)CSc2nnc(NC(=O)c3ccco3)s2)c1", "activity change, negative = cytotoxic": "inactive: 6.09%"}, {"smiles": "O=C(c1cc2ncc(CCCl)cn2n1)N1CCCCCC1", "activity change, negative = cytotoxic": "inactive: 5.71%"}, {"smiles": "COc1ccc(C(NC(=O)c2ccccc2F)NC(=O)c2ccccc2F)cc1", "Potency": "inconclusive: 29.1 µM [rising, single point]"}, {"smiles": "COc1cccc(Nc2nc(C(N)Cc3ccccc3)cs2)n1", "note": "(configuration not stated)", "Potency": "inconclusive: 29.1 µM [cytotoxic, single point]"}, {"smiles": "CC(C)CNC(=O)c1cccc(NC(=O)Cc2ccc(Cl)cc2)c1", "Potency": "inconclusive: 18.4 µM [cytotoxic, single point]"}, {"smiles": "Cc1c(OCC(=O)NCC(O)c2ccccc2)ccc2c(-c3ccccc3)cc(=O)oc12", "note": "(configuration not stated)", "activity change, negative = cytotoxic": "inconclusive: -32.1%"}, {"smiles": "CCCCc1nc2cc(C(=O)NCc3cn(C)nc3C)ccc2o1", "Potency": "inconclusive: 13 µM [cytotoxic, single point]"}, {"smiles": "NC(=O)c1csc(CCNC(=O)c2ccccc2)n1", "activity change, negative = cytotoxic": "inactive: -3.45%"}, {"smiles": "COC(=O)C1Cc2ccccc2CN1C(=O)CCl", "note": "(configuration not stated)", "Potency": "inconclusive: 20.6 µM [cytotoxic, partial curve, poor fit]"}, {"smiles": "COCCNC(=O)c1ccc2c(c1)ncn2-c1ccc(C)c(Cl)c1", "Potency": "inconclusive: 29.1 µM [cytotoxic, single point]"}, {"smiles": "O=C(CSc1nc2cc3ccccc3cc2[nH]1)Nc1ccc(F)cc1", "Potency": "inactive"}, {"smiles": "CC1=C(C(=O)Nc2ccc(Cl)cc2)C(c2cccs2)n2nc(SCc3cccc(C)c3)nc2N1", "note": "(configuration not stated)", "activity change, negative = cytotoxic": "inactive: 11.4%"}, {"smiles": "COCCNC(=S)N(CCc1c(C)[nH]c2ccc(F)cc12)Cc1cccs1", "activity change, negative = cytotoxic": "inactive: -21.1%"}, {"smiles": "COc1ccc(OCc2cc(C(=O)NC3Cc4ccccc4C3)no2)c(Cl)c1", "Potency": "active: 4.61 µM"}, {"smiles": "Cn1c(N)c(C(=O)CSc2ccccn2)c(=O)n(C)c1=O", "Potency": "inconclusive: 29.1 µM [rising, single point]"}, {"smiles": "Cc1cc(Br)cn2c(Cc3cccc(F)c3)c(-c3ccc(Cl)cc3)nc12", "Potency": "inconclusive: 25.9 µM [cytotoxic, single point]"}, {"smiles": "CC1C(c2ccccc2)N(C)C(c2ccccc2)C(C)C1(O)C#Cc1ccccc1", "note": "(configuration not stated)", "Potency": "inconclusive: 29.1 µM [cytotoxic, single point]"}, {"smiles": "COc1ccccc1Cc1c(-c2ccco2)nc2c(C)cc(Br)cn12", "Potency": "inconclusive: 29.1 µM [cytotoxic, single point]"}, {"smiles": "CCc1c(C)[nH]c(=S)c(C#N)c1C", "Potency": "inconclusive: 16.4 µM [rising, single point]"}, {"smiles": "Cc1onc(-c2ccccc2Cl)c1C(=O)N1CCN(c2nc3ccccc3s2)CC1", "Potency": "inconclusive: 29.1 µM [cytotoxic, single point]"}, {"smiles": "Cc1ccc2cc(CCNC(=O)c3ccc(Br)o3)c(=O)[nH]c2c1", "Potency": "inconclusive: 20.6 µM [rising, single point]"}, {"smiles": "COc1ccc(C(CCN2CCCCC2)c2c(OC)cc(OC)c3c(-c4ccccc4)cc(=O)oc23)cc1", "note": "(configuration not stated)", "Potency": "inconclusive: 29.1 µM [cytotoxic, single point]"}, {"smiles": "O=C(N[C@@H](Cc1ccccc1)C(=O)N1CCC2(CC1)NCCc1[nH]cnc12)c1cccc(F)c1", "Potency": "inconclusive: 8.2 µM [rising, partial curve]"}, {"smiles": "OCC[C@H]1C[C@H](O)[C@@H](O)[C@@]2(OCCCc3ccccc32)O1", "activity change, negative = cytotoxic": "inactive: 20.1%"}, {"smiles": "Cc1cc(-c2n[nH]c(=S)n2/N=C/c2cc([N+](=O)[O-])ccc2Cl)n[nH]1", "Potency": "inconclusive: 29.1 µM [cytotoxic, single point]"}, {"smiles": "COc1cccc2sc(NC(=O)c3ccc(S(=O)(=O)N4CCC(C)CC4)cc3)nc12", "activity change, negative = cytotoxic": "inactive: -10.8%"}, {"smiles": "CCc1ccc(CN(C)C(=O)c2cc(COc3cccc4cnccc34)on2)cc1", "Potency": "inconclusive: 7.31 µM [cytotoxic, partial curve]"}, {"smiles": "CC1CCN(c2nc(-c3ccncc3)nc3ccccc23)CC1", "Potency": "inconclusive: 18.4 µM [cytotoxic, single point]"}, {"smiles": "Oc1ccc(C[C@H]2CNC(=S)N2CC2CCCN2C[C@H](Cc2ccccc2)N2C[C@H](Cc3ccc(O)cc3)N(CC3CCCCC3)C2=S)cc1", "note": "(some centres not stated)", "Potency": "inconclusive: 29.1 µM [cytotoxic, single point]"}, {"smiles": "Cc1cc(C)cc(NC(=O)CN2CCCN(S(=O)(=O)c3ccc(Br)s3)CC2)c1", "Potency": "inconclusive: 16.4 µM [cytotoxic, single point]"}, {"smiles": "Cc1sc(-c2cc3ccccc3oc2=O)nc1-c1ccc(Cl)c(Cl)c1", "Potency": "inconclusive: 29.1 µM [rising, single point]"}, {"smiles": "CCOC(=O)C(=CNc1cc(Cl)c(-c2ccco2)c(Cl)c1)C(=O)OCC", "activity change, negative = cytotoxic": "inactive: -6.13%"}, {"smiles": "O=C(C[C@H]1CC[C@H]2[C@@H](COC[C@@H](O)CN2S(=O)(=O)c2ccc(F)cc2)O1)N[C@@H]1CCN(Cc2ccccc2)C1", "activity change, negative = cytotoxic": "inactive: 12.5%"}, {"smiles": "CCOC(=O)C1=CCN(S(=O)(=O)c2ccc(C)cc2)C1c1cccc2ccccc12", "note": "(configuration not stated)", "Potency": "inconclusive: 29.1 µM [cytotoxic, single point]"}, {"smiles": "CCCCN1C(=O)c2ccc(C(=O)Nc3ccc(C)c(S(=O)(=O)N(C)C)c3)cc2C1=O", "Potency": "inconclusive: 23.1 µM [cytotoxic, single point]"}, {"smiles": "CS(=O)(=O)c1ccc(Nc2nc(C(N)Cc3ccc(C(F)(F)F)cc3)cs2)cc1", "note": "(configuration not stated)", "Potency": "inconclusive: 25.9 µM [cytotoxic, single point]"}, {"smiles": "CN1CCc2c(sc(NC(=O)c3ccc([N+](=O)[O-])o3)c2C(N)=O)C1", "Potency": "inconclusive: 2.59 µM [cytotoxic, full curve, poor fit]"}, {"smiles": "Nc1nnc(SCC(=O)NCCNC(=O)CSc2nnc(N)s2)s1", "activity change, negative = cytotoxic": "inactive: 7.22%"}, {"smiles": "COc1ccccc1Cc1c(-c2ccc(Cl)cc2)nc2c3ccccc3ccn12", "Potency": "inconclusive: 29.1 µM [cytotoxic, single point]"}, {"smiles": "Cc1cc(=O)n(Cc2ccc(F)cc2Cl)c2c1c(C)nn2C", "activity change, negative = cytotoxic": "inactive: 3.18%"}, {"smiles": "Cc1cccc2sc(NNC(=O)c3cc(-c4cccs4)nc4ccccc34)nc12", "Potency": "inconclusive: 29.1 µM [cytotoxic, single point]"}, {"smiles": "CC(C)c1ccc(-c2noc(SCC(=O)N3CCCCC3C)n2)cc1", "note": "(configuration not stated)", "activity change, negative = cytotoxic": "inactive: 15.6%"}, {"smiles": "CC(=O)Nc1cc(-c2ccccc2F)cn2c(-c3cccc(C(F)(F)F)c3)cnc12", "Potency": "inconclusive: 29.1 µM [cytotoxic, single point]"}]}]}
